Patent US7851630B2 (priority 2003, dated 2010)
At least one compound was matched to its structure with a doubt left.

System: conditioned ultrasonic distress vocalisation
Settings: in vivo

CC(C)C[C@H](NC(=O)[C@H](CCCCN)NC(=O)[C@H](CCCN=C(N)N)NC(=O)[C@H](C)NC(=O)[C@H](CO)NC(=O)[C@H](CCCCN)NC(=O)[C@H](CCCN=C(N)N)NC(=O)[C@H](C)NC(=O)CNC(=O)[C@@H](NC(=O)[C@H](Cc1ccccc1)NC(=O)CNC(=O)CNC(=O)[C@@H](N)Cc1ccccc1)[C@@H](C)O)C(=O)N[C@@H](C)C(=O)N[C@@H](CC(N)=O)C(=O)N[C@@H](CCC(N)=O)C(=O)O [nociceptine]
activity in conditioned ultrasonic distress vocalisation procedure (in words): active
